Measured values published in PMC11461529.
Results are given in words; binding and its absence hold for the method and conditions named. Binding seen in cells or lysates may run through a third protein. A yes stands for co-enrichment or nearness to the bait. Other partners may have been found.

T1: katanin-like 2 (KL2) (mouse (endogenous in mouse oocytes)) (UniProt Q9D3R6)
T1 sequence: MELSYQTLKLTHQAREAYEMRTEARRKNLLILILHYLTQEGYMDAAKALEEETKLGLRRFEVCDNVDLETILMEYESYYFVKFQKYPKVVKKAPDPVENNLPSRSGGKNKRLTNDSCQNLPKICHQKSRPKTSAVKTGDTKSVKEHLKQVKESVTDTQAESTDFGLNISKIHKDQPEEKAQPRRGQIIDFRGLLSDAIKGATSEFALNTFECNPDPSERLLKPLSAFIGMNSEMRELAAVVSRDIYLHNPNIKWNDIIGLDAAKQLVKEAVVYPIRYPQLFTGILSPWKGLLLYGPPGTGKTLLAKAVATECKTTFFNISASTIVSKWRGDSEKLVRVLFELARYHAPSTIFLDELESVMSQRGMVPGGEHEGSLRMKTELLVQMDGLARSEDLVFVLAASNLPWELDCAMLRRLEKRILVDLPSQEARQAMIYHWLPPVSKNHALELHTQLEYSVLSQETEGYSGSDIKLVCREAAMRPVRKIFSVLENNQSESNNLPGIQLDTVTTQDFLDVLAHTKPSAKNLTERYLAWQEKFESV


How the values were obtained:
[1] = target: T1, katanin-like 2 (KL2) (mouse (endogenous in mouse oocytes)); experiment: affinity purification with mass spectrometry; preliminary LC-MS of what KL2 pulled down; lysate not stated
[2] = target: T1, katanin-like 2 (KL2) (mouse (endogenous in mouse oocytes)); experiment: affinity purification with mass spectrometry; anti-KL2 antibody or control IgG on protein A/G agarose beads, mouse oocyte lysate, overnight 4 C, IP buffer (20 mmol/L Tris-HCl pH 8.0, 150 mmol/L NaCl, 10 mmol/L EDTA, 1 mmol/L EGTA, 0.05% Triton X-100, 0.05% NP-40); SDS-PAGE, silver staining, bands distinct from control IgG identified by MALDI-TOF-MS

Molecule	binding [1]	binding [2]
histone 1 (H1) (mouse (endogenous in mouse cells))	binds	
histone H2 (mouse (endogenous in mouse cells))	binds	
eukaryotic elongation factor-2 kinase (eEF2K) (enzyme, UniProt O08796 1-724) MADEDLIFCLEGVDGGRCSRAGHNADSDTDSDDDEGYFICPITDDHMSNQNVSSKVQSYYSNLTKTECGSTGSPASSFHFKEAWKHAIEKAKHMPDPWAEFHLEDIATEHATRHRYNAVTGEWLKDEVLIKMASQPFGRGAMRECFRTKKLSNFLHAQQWKGASNYVAKRYIEPVDRSVYFEDVQLQMEAKLWGEDYNRHKPPKQVDIMQMCIIELKDRPGQPLFHLEHYIEGKYIKYNSNSGFVRDDNIRLTPQAFSHFTFERSGHQLIVVDIQGVGDLYTDPQIHTEKGTDFGDGNLGVRGMALFFYSHACNRICQSMGLTPFDLSPREQDAVNQSTRLLQSAKTILRGTEEKCGSPRIRTLSSSRPPLLLRLSENSGDENMSDVTFDSLPSSPSSATPHSQKLDHLHWPVFGDLDNMGPRDHDRMDNHRDSENSGDSGYPSEKRSDLDDPEPREHGHSNGNRRHESDEDSLGSSGRVCVETWNLLNPSRLHLPRPSAVALEVQRLNALDLGRKIGKSVLGKVHLAMVRYHEGGRFCEKDEEWDRESAIFHLEHAADLGELEAIVGLGLMYSQLPHHILADVSLKETEENKTKGFDYLLKAAEAGDRHSMILVARAFDTGLNLSPDRCQDWSEALHWYNTALETTDCDEGGEYDGIQDEPQYALLAREAEMLLTGGFGLDKNPQRSGDLYTQAAEAAMEAMKGRLANQYYEKAEEAWAQMEE		binds
